Construct, isoform or probe ends are uncertain for at least one entry. At least one verdict rests on a figure or table, not on a statement of the authors.
Target: ParB (Bacillus subtilis) (UniProt P26497)
Assay: fluorescence anisotropy
Settings: recombinant protein
[1] = no notable change in affinity vs parS

The chains behind the UniProt entries cited, without tags or fusion partners. Where a name states a change or a piece, a line headed by the entry shows the natural chain unless it says otherwise.
UniProt P26497: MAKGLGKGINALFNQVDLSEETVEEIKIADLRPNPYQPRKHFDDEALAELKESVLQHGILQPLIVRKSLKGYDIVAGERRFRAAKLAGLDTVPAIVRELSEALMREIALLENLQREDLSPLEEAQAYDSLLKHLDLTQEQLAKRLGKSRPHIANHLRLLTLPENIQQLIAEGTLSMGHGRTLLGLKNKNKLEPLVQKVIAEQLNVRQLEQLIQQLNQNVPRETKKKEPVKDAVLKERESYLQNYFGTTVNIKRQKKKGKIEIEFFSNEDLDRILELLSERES

| Sequence | binding result [1] | binding result (reference for spacer variants) |
| --- | --- | --- |
| GTTGTTCTGTTTCACGATCTACGTGGAACATCTGGATTAC (double strand) [parS_7bp (+GATCTAC)] | binds | – |
| TAGTTGTTCTGTTTCACGACGTGGAACATCTGGATTACCC (double strand) [parS_3bp (+GAC)] | binds | – |
| TAGTTGTTCTGTTTCACGGTGGAACATCTGGATTACCCGC (double strand) [parS_1bp (+G)] | binds | – |
| TTAGTTGTTCTGTTTCACGTGGAACATCTGGATTACCCGC (double strand) [parS DNA40 (parS-359)] | – | binds |
| TAGTTGTTCTGTTTCACGCGTGGAACATCTGGATTACCCG (double strand) [parS_2bp (+GC)] | binds | – |
| AGTTGTTCTGTTTCACGATACGTGGAACATCTGGATTACC (double strand) [parS_5bp (+GATAC)] | binds | – |
| GTTGTTCTGTTTCACGATTACGTGGAACATCTGGATTACC (double strand) [parS_6bp (+GATTAC)] | binds | – |
| TTGTTCTGTTTCACGATCATACGTGGAACATCTGGATTAC (double strand) [parS_8bp (+GATCATAC)] | binds | – |
| AGTTGTTCTGTTTCACGAACGTGGAACATCTGGATTACCC (double strand) [parS_4bp (+GAAC)] | binds | – |

Source: paper PMC8494293, “Relief of ParB autoinhibition by parS DNA catalysis and recycling of ParB by CTP hydrolysis promote bacterial centromere assembly” (Science Advances, 2021)
